PubChem BioAssay AID686938, Drosophila RNAi Screening Center | 2013
The deposit covers about 23,000 reagents; this is an unselected part of those with a known target gene and a result. In the full data, 75 (0.33%) got an active call. 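Raw plate signals without normalisation; calls rest on plate z-scores that were not deposited; ratio present for only 364 wells.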 Not stated in the record: the dose of the treatment.

Aim: 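Fly genes required for calcium entry once internal stores are emptied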 (primary screen)
System: Drosophila S2R+ cells
Reagent: long dsRNA against Drosophila genes, about 0.25 µg dsRNA per well, roughly 10,000 cells
Timing: 5 days of knock-down before the calcium assay
Conditions: thapsigargin (SERCA pump blocker) to empty calcium stores; entry signal taken 4 min after adding it
Measurement: 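Duplicate raw fluo-4 intensities per well from a plate reader, at rest and four minutes after thapsigargin emptied calcium stores; entry-to-rest ratio filled for only some wells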
Direction: calcium entry signal: higher = stronger calcium signal after store depletion; resting calcium signal: higher = higher resting calcium signal
Units: calcium entry signal in fluorescence units; resting calcium signal in fluorescence units
Call rule: 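Called when the plate z-score of the entry-to-rest ratio, mean of duplicates, falls below −3; wells with low overall dye signal (Fmax z below −2) or more than five off-targets excluded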
Meaning of the calls: active = strongly reduced calcium entry; inactive = no strong reduction

CG14835 [DRSC10205]: calcium entry signal, replicate 1 = 2.42e7; calcium entry signal, replicate 2 = 3.57e7; resting calcium signal, replicate 1 = 1.25e7; resting calcium signal, replicate 2 = 1.61e7; Call = inactive
Sry-alpha (Serendipity alpha) [DRSC16867]: calcium entry signal, replicate 1 = 4.62e7; calcium entry signal, replicate 2 = 4.84e7; resting calcium signal, replicate 1 = 2.40e7; resting calcium signal, replicate 2 = 2.49e7; Call = inactive
Cyp309a1 (Cytochrome P450 309a1) [DRSC00747]: calcium entry signal, replicate 1 = 3.70e7; calcium entry signal, replicate 2 = 3.36e7; resting calcium signal, replicate 1 = 1.69e7; resting calcium signal, replicate 2 = 1.48e7; Call = inactive
tth (toothrin) [DRSC19435]: calcium entry signal, replicate 1 = 3.57e7; calcium entry signal, replicate 2 = 4.04e7; resting calcium signal, replicate 1 = 1.49e7; resting calcium signal, replicate 2 = 1.91e7; Call = inactive
CG34266 [DRSC08323]: calcium entry signal, replicate 1 = 2.57e7; calcium entry signal, replicate 2 = 3.54e7; resting calcium signal, replicate 1 = 1.27e7; resting calcium signal, replicate 2 = 1.48e7; Call = inactive
CG34229 [DRSC06316]: calcium entry signal, replicate 1 = 3.25e7; calcium entry signal, replicate 2 = 4.03e7; resting calcium signal, replicate 1 = 1.76e7; resting calcium signal, replicate 2 = 1.91e7; Call = inactive
ZnT77C (Zinc transporter 77C) [DRSC11766]: calcium entry signal, replicate 1 = 2.80e7; calcium entry signal, replicate 2 = 4.57e7; resting calcium signal, replicate 1 = 1.41e7; resting calcium signal, replicate 2 = 2.02e7; Call = inactive
ZnT77C (Zinc transporter 77C) [DRSC11767]: calcium entry signal, replicate 1 = 2.78e7; calcium entry signal, replicate 2 = 4.98e7; resting calcium signal, replicate 1 = 1.42e7; resting calcium signal, replicate 2 = 2.06e7; Call = inactive
CG15247 [DRSC17976]: calcium entry signal, replicate 1 = 2.97e7; calcium entry signal, replicate 2 = 5.46e7; resting calcium signal, replicate 1 = 1.52e7; resting calcium signal, replicate 2 = 2.63e7; Call = inactive
CG31262 [DRSC13216]: calcium entry signal, replicate 1 = 3.45e7; calcium entry signal, replicate 2 = 3.23e7; resting calcium signal, replicate 1 = 1.72e7; resting calcium signal, replicate 2 = 1.54e7; Call = inactive
trbd (trabid) [DRSC16494]: calcium entry signal, replicate 1 = 3.39e7; calcium entry signal, replicate 2 = 3.80e7; resting calcium signal, replicate 1 = 1.57e7; resting calcium signal, replicate 2 = 1.92e7; Call = inactive
loaf (lost and found) [DRSC09130]: calcium entry signal, replicate 1 = 3.93e7; calcium entry signal, replicate 2 = 4.65e7; resting calcium signal, replicate 1 = 2.15e7; resting calcium signal, replicate 2 = 2.25e7; Call = inactive
CG18371 [DRSC06733]: calcium entry signal, replicate 1 = 3.70e7; calcium entry signal, replicate 2 = 3.42e7; resting calcium signal, replicate 1 = 1.83e7; resting calcium signal, replicate 2 = 1.57e7; Call = inactive
CG2017 [DRSC12293]: calcium entry signal, replicate 1 = 4.05e7; calcium entry signal, replicate 2 = 4.72e7; resting calcium signal, replicate 1 = 1.65e7; resting calcium signal, replicate 2 = 2.05e7; Call = inactive
Sirt4 (Sirtuin 4) [DRSC18290]: calcium entry signal, replicate 1 = 3.39e7; calcium entry signal, replicate 2 = 4.21e7; resting calcium signal, replicate 1 = 1.58e7; resting calcium signal, replicate 2 = 2.06e7; Call = inactive
Pkg21D (Protein kinase, cGMP-dependent at 21D) [DRSC00772]: calcium entry signal, replicate 1 = 4.52e7; resting calcium signal, replicate 1 = 2.16e7; Call = inactive
Mics1 (Mitochondrial morphology and cristae structure 1) [DRSC12537]: calcium entry signal, replicate 1 = 4.12e7; calcium entry signal, replicate 2 = 3.17e7; resting calcium signal, replicate 1 = 1.88e7; resting calcium signal, replicate 2 = 1.65e7; Call = inactive
Amph (Amphiphysin) [DRSC07578]: calcium entry signal, replicate 1 = 3.86e7; calcium entry signal, replicate 2 = 4.06e7; resting calcium signal, replicate 1 = 1.70e7; resting calcium signal, replicate 2 = 2.03e7; Call = inactive
CG14830 [DRSC08876]: calcium entry signal, replicate 1 = 4.16e7; calcium entry signal, replicate 2 = 4.02e7; resting calcium signal, replicate 1 = 1.98e7; resting calcium signal, replicate 2 = 1.81e7; Call = inactive
CG13067 [DRSC09950]: calcium entry signal, replicate 1 = 3.82e7; calcium entry signal, replicate 2 = 6.40e7; resting calcium signal, replicate 1 = 2.02e7; resting calcium signal, replicate 2 = 2.42e7; Call = inactive
Exd2 (Exonuclease 3'-5' domain-containing 2) [DRSC16105]: calcium entry signal, replicate 1 = 3.34e7; calcium entry signal, replicate 2 = 3.54e7; resting calcium signal, replicate 1 = 1.59e7; resting calcium signal, replicate 2 = 1.81e7; Call = inactive

2 entries from above, ordered by “resting calcium signal, replicate 1”, low to high.
CG18371 [DRSC06733]: calcium entry signal, replicate 1 = 3.70e7; calcium entry signal, replicate 2 = 3.42e7; resting calcium signal, replicate 1 = 1.83e7; resting calcium signal, replicate 2 = 1.57e7; Call = inactive
loaf (lost and found) [DRSC09130]: calcium entry signal, replicate 1 = 3.93e7; calcium entry signal, replicate 2 = 4.65e7; resting calcium signal, replicate 1 = 2.15e7; resting calcium signal, replicate 2 = 2.25e7; Call = inactive
